Measured values taken from PubChem BioAssay AID1488 (Vanderbilt High Throughput Screening Facility, 2009).
Screen size: about 1,700 compounds; about 310 (18%) were called active. The shares of active, inactive and inconclusive entries below differ from those in the screen.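 The calls were made as follows: active = fluorescence change differs from the solvent-only DMSO control mean at a set confidence level in both duplicate runs; inconclusive = differs from solvent-only control mean in just one of two runs; inactive = the rest.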

Chains of the proteins cited; added tags and fusions are not shown. Lines headed by an entry give the natural chain unless they say otherwise; changes in a name come on top.
UniProt P08482: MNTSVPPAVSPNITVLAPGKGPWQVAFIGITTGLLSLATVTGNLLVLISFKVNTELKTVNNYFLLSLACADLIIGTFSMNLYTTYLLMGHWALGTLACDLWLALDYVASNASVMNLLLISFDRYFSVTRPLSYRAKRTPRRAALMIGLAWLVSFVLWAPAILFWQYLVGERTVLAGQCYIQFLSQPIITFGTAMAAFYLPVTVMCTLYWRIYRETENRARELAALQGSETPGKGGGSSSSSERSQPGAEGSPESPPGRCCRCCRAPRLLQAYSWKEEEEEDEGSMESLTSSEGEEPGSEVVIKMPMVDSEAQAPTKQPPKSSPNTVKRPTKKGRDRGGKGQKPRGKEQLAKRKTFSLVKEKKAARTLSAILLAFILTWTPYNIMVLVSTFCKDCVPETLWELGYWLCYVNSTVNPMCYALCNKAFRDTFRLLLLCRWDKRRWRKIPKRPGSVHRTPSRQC

Target: Muscarinic acetylcholine receptor M1 (Rattus norvegicus) (UniProt P08482)
Assay: rat M1 muscarinic receptor agonists, confirmation, CHO-M1 cells, Fluo-4 calcium, duplicate retest (AID 1488);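 also: an EC20 dose of acetylcholine follows compound addition during the same imaging run; raw fluorescence intensity difference in instrument units with no normalization to controls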
Settings: Fluo-4 calcium fluorescence, agonist mode, at 10 µM, actives lie on both sides

Fluorescence change (max-min), active:
C1=CN2CCC1C(c1ccccc1)C2 (stereo unspecified) 428
Cn1c(=O)c(NCCO)c2c3c(cccc31)C(=O)c1ccccc1-2 3130
CC(C)n1c(N2CCN(CC(=O)Nc3ccc4c(c3)OCCO4)CC2)nc2ccccc21 -22.2
COCCn1c(-c2ccccc2)nc2oc3ccccc3c(=O)c2c1=O -24.9
O=C(Cc1cccs1)N1CCN(c2nc(-c3ccc(Cl)cc3)cs2)CC1 -28.5
COc1cccc(C2=CC(c3ccccc3)n3ncnc3N2)c1 (stereo unspecified) 159
C=CCOc1cccc(C2C(C(=O)c3ccc(C)o3)=C(O)C(=O)N2c2nccs2)c1 (stereo unspecified) 834
Cc1ccc2nc(Nc3ccc4[nH]c(=O)[nH]c4c3)c(-n3nc(C)cc3C)nc2c1 -23
CCOC(=O)C1CCN(C(=O)Nc2ccc3nc(-c4ccco4)c(-c4ccco4)nc3c2)CC1 392
COCCn1c(=N)c(C(=O)NCc2ccco2)cc2c(=O)n3ccccc3nc21 66.4
CCOc1cc(-c2nc3cc(C)ccn3c2NCC2CCCO2)ccc1O (stereo unspecified) -30.6
COCCCNc1c2c3c(cccc3[nH]c1=O)C(=O)c1ccccc1-2 3170
O=C(NCCn1cccc1)c1cccc2ccccc12 -30.8

Fluorescence change (max-min), inactive:
CCOC(=O)C1CCCN(C(=O)Cc2c(C(=O)O)[nH]c3ccccc23)C1 (stereo unspecified) 41.1
Cn1c(=O)n(C)c2cc(S(=O)(=O)NCCc3ccccc3)ccc21 -15.7
CC1CCC(NC(=O)c2cc3c(=O)n(C)c4ccccc4c3n2C)CC1 (stereo unspecified) -7.57
COCC(=O)NC(c1ccccc1)c1ccccc1 -10.8
Cc1[nH]nc2c1C1(CCN(C(=O)c3ccccc3)CC1)C(C#N)=C(N)O2 -12.4
O=C(c1ccc(CS(=O)(=O)c2c(Cl)cccc2Cl)o1)N1CCN(c2ccccn2)CC1 -15.7
CC(=O)N1CCc2cc(C(=O)CN3CCN(c4cccc(Cl)c4)CC3)ccc21 21.7
Cc1ccc(-c2cc(C(F)F)nc(N3CCC(C)CC3)n2)cc1 3.35
O=C(NCC(=O)N(Cc1ccccc1)C(C(=O)NC1CCCC1)c1ccco1)c1ccco1 (stereo unspecified) -12.3
CN(C)c1nc(SCCOC(=O)COc2ccc(Cl)cc2Cl)nc(N(C)C)n1 10.6
CC(=O)N1CCN(c2ccc(Nc3ncnc4c3oc3ccccc34)cc2)CC1 -5.91
O=C(CCCCCn1c(=S)[nH]c2cc3c(cc2c1=O)OCO3)N1CCN(C2CCCCC2)CC1 -23.4
O=C(Cn1ncc2c(=O)oc3ccccc3c21)N1CCCN(Cc2ccccc2F)C1 -9.98
CCn1c(SCC(=O)Nc2cc(C)ccc2C)nc2c(c1=O)SC(C)C2 (stereo unspecified) -17.1

Four records drawn at random from those above, as already listed:
Fluorescence change (max-min), inactive:
CC(=O)N1CCN(c2ccc(Nc3ncnc4c3oc3ccccc34)cc2)CC1 -5.91
COCC(=O)NC(c1ccccc1)c1ccccc1 -10.8
O=C(Cn1ncc2c(=O)oc3ccccc3c21)N1CCCN(Cc2ccccc2F)C1 -9.98
Cn1c(=O)n(C)c2cc(S(=O)(=O)NCCc3ccccc3)ccc21 -15.7

Next part.

Fluorescence change (max-min), inconclusive:
Cc1cc(-n2c(C)cc(C(=O)COc3ccc4ccc(=O)oc4c3)c2C)no1 -30.7
COc1ccc(NC(=O)c2oc3ccc(S(=O)(=O)N4CCC5(CC4)OCCO5)cc3c2C)cc1 -20.1
CCOC(=O)c1[nH]c2cc(OC)c(OC)cc2c1NC(=O)C(C)N1CCN(Cc2ccccc2)CC1 (stereo unspecified) -16.3
Cc1ccc(Cl)cc1N1CCN(C(=O)C2CCN(S(=O)(=O)c3c(C)nn(C)c3C)CC2)CC1 -19.1
CCOc1ccc(/C=c2\sc3nc(-c4ccco4)nn3c2=O)cc1OCC 63.6
Cc1nc2ccccc2c2oc(C(=O)N3CCN(C4CCCCC4)CC3)cc12 -19.7
Cc1cc(Nc2ccc(Br)c(C)c2)n2nc(C)nc2n1 -21.1
CCOC(=O)N1CCN(C(=O)c2ccc3nc(SCc4ccc(F)cc4)n(C)c3c2)CC1 -25.1
CCOc1ncccc1C(=O)Nc1ccc2c(C)cc(=O)oc2c1 -23.2
CCOC(=O)C(C)Sc1nnc(CNC(=O)c2ccc(OC)cc2)n1C1CCCCC1 (stereo unspecified) -25.4
O=C(CN(Cc1ccco1)C(=O)CNS(=O)(=O)c1ccc(F)cc1)NCCc1ccccc1 -27.7
c1ccc(-n2c(-c3ccncc3)nnc2-c2cccs2)cc1 -23.2
Cc1cc2ncn(C3CC(=O)N(Cc4ccccc4)C3=O)c2cc1C (stereo unspecified) -21.9
Cc1cccc(N2CCN(C(=O)C3CCN(c4nnc(-n5cccc5)s4)CC3)CC2C)c1 (stereo unspecified) -21.1
CCOCCCn1cnc2c(c1=O)c1nc3ccccc3nc1n2-c1ccccc1 -27.7
Cc1ccccc1OCC(=O)Nc1cccc(NC(=O)c2ccco2)c1 -24.3
Cc1cc(C(=O)CSc2nnc(-c3ccco3)o2)c(C)n1-c1ccc2c(c1)OCCO2 -12.6
COc1ccccc1Oc1ccc(S(=O)(=O)NCc2ccccn2)cc1 -24.7
CCCNS(=O)(=O)c1ccc(CCC(=O)N2CCCCC2)cc1 -21.3
Cc1cc(Cl)ccc1OCC(=O)N1CCCCC1 -17.9
CCOc1ccccc1C(=O)NCC(=O)OCC(=O)N1C(C)CCCC1C (stereo unspecified) -19
O=C(COc1cccc(NC(=O)c2ccco2)c1)c1ccc(F)cc1 -21.4
CN1CCN(c2ncnc3c2cnn3-c2ccc(Cl)cc2)CC1 -14.1
CCOC(=O)N1CCC(NC(=O)c2cccc3c2C(=O)N(c2ccc(OC)cc2)C3)CC1 -25
COc1cc2nc(NCC3CCCO3)n3nc(-c4cccnc4)nc3c2cc1OC (stereo unspecified) -21.3
COc1ccccc1NC(=O)C1=C(C)Nc2nc(-c3cccs3)nn2C1c1cccc(O)c1 (stereo unspecified) 68.7
COCCn1nnnc1C(c1cccc(OC)c1OC)N1CCN(C2CCCCC2)CC1 (stereo unspecified) -18.1
Fc1ccccc1N1CCN(c2nc3ccccc3n3nnnc23)CC1 54.1
O=C(NCC(c1cccnc1)N1CCN(c2ccc(F)cc2)CC1)c1cccc(Cl)c1 (stereo unspecified) -20.4
